Reference: patent US9073931B2, “Liver X receptor modulators” (Vitae Pharmaceuticals, Inc., priority 2012, dated 2015)
The match of structure and compound is tentative.

Amino acid sequences for entries named in this document (tags omitted). Residues count along the entry.
UniProt P55055, 222-460 limits assumed: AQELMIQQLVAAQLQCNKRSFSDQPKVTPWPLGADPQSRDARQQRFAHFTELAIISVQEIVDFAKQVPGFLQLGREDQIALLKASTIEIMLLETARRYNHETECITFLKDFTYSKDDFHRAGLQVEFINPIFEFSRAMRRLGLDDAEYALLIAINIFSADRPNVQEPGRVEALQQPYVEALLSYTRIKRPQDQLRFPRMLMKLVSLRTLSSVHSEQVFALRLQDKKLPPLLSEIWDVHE

Target: LXR β LBD protein (Homo sapiens (Human), UniProt P55055)
Assay: LXR β radioligand binding assay (SPA, [3H]T0901317 competition)
Settings: read-out: LXRβ BINDING Ki; competition with 15 nM [3H]T0901317, LXRβ LBD

| SMILES | Ki |
| --- | --- |
| CC(C)[C@H]1c2cc3cc(CO)c(S(C)(=O)=O)cc3n2CCN1c1ncc(C(N)=O)c(C(F)(F)F)n1 | > 2500 nM |
| CC(C)[C@@H]1c2cc3cc(CO)c(S(C)(=O)=O)cc3n2CCN1c1ncc(C(N)=O)c(C(F)(F)F)n1 | 50 nM |
